This is one part of the list.
Experiments:
Assay in all cases: log2 fold change, soluble protein after heating vs DMSO (PISA); higher = thermal stabilisation; K562 lysate, 10 uM; active = over 0.2 and 3.5 SD of the protein, either way, in both replicates (recomputed)
erlotinib = compound: C#Cc1cccc(Nc2ncnc3cc(OCCOC)c(OCCOC)cc23)c1 [erlotinib]
How it was run: (§1)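 Quantification was by TMTpro 16plex LC-MS/MS with equalised channel sums, applied to the supernatant after 21,000xg for 90 min. Samples were crude K562 extract at 1 mg/mL protein in PBS pH 7.4 with 1 mM MgCl2, treated with 10 μM compound for 30 min, heated for 3 min across 48°C-58°C, pooled and brought to 0.5% NP-40 at 4°C. Values are log-two fold changes in thermal stability relative to solvent controls, from duplicates.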

Amino acid sequences for entries named in this document (tags omitted). A change or cut given only in a name is not applied to a line headed by its entry.
UniProt O43760: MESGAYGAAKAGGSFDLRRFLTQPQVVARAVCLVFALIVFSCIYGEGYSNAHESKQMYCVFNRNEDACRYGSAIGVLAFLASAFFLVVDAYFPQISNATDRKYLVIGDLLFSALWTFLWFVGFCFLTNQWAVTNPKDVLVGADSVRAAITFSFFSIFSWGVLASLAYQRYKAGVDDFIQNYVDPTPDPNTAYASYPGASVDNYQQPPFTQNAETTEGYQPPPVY
UniProt Q9UNE7: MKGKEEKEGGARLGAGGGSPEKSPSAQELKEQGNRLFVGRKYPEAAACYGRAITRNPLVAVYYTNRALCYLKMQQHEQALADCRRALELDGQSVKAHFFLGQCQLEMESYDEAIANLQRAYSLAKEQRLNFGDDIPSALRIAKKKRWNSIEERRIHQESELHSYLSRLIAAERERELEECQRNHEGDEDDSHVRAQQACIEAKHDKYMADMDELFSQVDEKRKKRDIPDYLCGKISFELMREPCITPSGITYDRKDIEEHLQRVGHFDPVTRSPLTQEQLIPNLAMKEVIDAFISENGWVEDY
UniProt Q13190: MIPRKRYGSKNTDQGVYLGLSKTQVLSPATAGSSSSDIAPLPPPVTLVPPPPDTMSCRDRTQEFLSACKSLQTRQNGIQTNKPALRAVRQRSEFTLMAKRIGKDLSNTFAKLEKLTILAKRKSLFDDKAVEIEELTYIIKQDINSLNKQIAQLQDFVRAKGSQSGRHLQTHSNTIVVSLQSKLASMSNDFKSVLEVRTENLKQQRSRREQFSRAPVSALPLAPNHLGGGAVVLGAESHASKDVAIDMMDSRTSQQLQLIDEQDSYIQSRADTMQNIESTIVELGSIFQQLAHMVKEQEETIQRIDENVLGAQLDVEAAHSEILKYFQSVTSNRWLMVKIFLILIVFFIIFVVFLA
UniProt Q9NRP7: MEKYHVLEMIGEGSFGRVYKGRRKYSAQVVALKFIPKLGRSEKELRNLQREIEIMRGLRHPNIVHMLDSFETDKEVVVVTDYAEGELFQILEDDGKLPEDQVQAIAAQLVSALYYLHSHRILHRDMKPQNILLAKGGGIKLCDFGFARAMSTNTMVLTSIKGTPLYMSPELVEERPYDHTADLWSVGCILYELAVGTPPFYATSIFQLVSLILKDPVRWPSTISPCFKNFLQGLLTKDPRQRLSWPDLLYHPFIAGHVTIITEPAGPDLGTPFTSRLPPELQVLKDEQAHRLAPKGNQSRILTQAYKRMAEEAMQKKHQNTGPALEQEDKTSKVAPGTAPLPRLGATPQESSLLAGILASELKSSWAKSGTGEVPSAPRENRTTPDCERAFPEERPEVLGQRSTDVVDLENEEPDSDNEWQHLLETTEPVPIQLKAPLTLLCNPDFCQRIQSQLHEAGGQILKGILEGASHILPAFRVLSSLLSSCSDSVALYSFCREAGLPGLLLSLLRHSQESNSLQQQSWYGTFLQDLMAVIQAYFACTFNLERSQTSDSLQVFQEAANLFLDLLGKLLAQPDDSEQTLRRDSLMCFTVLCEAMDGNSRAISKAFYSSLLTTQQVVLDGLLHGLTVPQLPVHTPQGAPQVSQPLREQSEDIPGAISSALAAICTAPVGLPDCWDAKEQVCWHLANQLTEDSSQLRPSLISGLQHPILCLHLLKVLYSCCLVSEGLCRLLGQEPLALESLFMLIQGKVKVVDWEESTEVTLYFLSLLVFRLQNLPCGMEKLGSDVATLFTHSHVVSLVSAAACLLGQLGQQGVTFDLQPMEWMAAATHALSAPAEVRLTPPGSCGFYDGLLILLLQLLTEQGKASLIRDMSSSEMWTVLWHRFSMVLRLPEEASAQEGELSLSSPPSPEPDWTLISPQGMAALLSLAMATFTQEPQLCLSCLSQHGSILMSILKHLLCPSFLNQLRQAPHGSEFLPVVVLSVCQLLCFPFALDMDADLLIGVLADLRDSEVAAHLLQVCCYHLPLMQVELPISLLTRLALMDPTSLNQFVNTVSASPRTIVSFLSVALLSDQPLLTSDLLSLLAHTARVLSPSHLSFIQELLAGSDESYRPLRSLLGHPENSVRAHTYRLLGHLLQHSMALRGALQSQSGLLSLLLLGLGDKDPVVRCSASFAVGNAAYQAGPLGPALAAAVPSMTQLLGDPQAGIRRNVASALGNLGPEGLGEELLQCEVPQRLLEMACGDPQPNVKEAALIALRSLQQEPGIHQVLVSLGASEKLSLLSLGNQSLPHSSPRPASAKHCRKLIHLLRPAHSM
UniProt Q96SI9: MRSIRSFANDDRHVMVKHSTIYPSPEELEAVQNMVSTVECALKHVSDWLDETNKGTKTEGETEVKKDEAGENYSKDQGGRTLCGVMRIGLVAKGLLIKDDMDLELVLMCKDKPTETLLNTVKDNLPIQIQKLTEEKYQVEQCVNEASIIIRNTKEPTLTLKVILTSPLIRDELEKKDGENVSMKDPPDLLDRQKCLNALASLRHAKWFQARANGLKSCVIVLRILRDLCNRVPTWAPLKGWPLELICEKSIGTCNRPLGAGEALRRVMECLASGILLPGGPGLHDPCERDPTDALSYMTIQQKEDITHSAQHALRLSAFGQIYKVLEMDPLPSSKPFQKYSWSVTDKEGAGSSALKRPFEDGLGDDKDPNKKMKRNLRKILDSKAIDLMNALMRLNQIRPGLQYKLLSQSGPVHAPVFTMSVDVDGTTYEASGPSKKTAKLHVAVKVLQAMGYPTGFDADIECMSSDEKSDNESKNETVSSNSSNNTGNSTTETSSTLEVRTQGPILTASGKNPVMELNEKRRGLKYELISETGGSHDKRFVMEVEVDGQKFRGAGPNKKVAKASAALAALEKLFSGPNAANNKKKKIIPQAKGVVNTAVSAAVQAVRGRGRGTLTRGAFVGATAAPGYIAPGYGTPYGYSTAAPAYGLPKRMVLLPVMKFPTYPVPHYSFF
UniProt Q9Y2Z0: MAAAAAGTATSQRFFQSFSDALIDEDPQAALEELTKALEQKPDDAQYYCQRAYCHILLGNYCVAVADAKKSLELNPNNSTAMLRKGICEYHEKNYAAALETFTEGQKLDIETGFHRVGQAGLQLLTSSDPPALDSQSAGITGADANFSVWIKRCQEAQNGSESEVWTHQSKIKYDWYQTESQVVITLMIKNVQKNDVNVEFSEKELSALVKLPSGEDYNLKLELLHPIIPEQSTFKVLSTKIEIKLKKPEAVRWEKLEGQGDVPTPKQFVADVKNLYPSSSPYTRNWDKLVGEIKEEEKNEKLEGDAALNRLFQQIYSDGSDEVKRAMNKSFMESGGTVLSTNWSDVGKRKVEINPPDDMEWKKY
UniProt Q96A49: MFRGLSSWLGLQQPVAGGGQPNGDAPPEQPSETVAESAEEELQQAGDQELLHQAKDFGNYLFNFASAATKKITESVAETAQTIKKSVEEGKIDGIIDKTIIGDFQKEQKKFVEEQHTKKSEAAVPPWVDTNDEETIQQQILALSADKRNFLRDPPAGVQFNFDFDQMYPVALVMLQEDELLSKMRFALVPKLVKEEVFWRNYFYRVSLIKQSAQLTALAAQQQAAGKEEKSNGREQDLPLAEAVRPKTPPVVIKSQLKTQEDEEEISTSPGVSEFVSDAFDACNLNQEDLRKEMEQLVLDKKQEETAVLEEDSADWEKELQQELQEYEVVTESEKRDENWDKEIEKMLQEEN
UniProt Q15526: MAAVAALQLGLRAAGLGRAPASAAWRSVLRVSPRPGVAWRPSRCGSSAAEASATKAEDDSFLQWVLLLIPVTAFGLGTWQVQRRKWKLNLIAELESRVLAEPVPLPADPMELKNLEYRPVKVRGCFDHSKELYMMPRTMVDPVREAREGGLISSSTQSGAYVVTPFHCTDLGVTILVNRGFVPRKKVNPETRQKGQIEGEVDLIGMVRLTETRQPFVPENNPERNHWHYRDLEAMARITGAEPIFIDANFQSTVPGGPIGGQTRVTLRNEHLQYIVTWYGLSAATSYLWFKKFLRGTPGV
UniProt Q9Y3F4: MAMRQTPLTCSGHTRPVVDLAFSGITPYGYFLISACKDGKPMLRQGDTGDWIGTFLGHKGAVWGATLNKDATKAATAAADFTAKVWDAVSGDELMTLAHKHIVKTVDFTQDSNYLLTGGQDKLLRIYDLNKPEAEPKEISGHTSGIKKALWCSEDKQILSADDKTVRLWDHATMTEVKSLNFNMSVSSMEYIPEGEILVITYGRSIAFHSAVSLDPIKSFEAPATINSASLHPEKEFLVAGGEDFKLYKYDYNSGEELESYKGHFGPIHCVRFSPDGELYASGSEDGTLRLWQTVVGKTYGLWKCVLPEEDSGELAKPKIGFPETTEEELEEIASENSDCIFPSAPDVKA
UniProt Q9NYJ8: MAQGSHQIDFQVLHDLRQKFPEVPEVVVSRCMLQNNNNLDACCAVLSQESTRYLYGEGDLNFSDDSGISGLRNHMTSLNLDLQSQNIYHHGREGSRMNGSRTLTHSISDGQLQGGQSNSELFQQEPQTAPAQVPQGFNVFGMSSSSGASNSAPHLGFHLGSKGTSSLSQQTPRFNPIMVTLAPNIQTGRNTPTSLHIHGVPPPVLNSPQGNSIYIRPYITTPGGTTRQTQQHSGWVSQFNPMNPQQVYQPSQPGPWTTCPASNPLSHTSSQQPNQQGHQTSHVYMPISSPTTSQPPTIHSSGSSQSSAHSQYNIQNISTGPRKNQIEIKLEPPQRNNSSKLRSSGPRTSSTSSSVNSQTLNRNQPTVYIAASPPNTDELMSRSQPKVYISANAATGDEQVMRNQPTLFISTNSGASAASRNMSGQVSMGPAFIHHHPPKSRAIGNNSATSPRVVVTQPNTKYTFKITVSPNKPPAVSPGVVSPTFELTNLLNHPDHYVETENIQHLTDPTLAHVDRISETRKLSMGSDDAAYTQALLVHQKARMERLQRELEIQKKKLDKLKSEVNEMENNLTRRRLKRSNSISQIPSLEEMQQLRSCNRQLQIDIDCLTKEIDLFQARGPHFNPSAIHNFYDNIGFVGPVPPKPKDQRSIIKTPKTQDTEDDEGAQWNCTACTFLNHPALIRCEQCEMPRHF
UniProt O15056: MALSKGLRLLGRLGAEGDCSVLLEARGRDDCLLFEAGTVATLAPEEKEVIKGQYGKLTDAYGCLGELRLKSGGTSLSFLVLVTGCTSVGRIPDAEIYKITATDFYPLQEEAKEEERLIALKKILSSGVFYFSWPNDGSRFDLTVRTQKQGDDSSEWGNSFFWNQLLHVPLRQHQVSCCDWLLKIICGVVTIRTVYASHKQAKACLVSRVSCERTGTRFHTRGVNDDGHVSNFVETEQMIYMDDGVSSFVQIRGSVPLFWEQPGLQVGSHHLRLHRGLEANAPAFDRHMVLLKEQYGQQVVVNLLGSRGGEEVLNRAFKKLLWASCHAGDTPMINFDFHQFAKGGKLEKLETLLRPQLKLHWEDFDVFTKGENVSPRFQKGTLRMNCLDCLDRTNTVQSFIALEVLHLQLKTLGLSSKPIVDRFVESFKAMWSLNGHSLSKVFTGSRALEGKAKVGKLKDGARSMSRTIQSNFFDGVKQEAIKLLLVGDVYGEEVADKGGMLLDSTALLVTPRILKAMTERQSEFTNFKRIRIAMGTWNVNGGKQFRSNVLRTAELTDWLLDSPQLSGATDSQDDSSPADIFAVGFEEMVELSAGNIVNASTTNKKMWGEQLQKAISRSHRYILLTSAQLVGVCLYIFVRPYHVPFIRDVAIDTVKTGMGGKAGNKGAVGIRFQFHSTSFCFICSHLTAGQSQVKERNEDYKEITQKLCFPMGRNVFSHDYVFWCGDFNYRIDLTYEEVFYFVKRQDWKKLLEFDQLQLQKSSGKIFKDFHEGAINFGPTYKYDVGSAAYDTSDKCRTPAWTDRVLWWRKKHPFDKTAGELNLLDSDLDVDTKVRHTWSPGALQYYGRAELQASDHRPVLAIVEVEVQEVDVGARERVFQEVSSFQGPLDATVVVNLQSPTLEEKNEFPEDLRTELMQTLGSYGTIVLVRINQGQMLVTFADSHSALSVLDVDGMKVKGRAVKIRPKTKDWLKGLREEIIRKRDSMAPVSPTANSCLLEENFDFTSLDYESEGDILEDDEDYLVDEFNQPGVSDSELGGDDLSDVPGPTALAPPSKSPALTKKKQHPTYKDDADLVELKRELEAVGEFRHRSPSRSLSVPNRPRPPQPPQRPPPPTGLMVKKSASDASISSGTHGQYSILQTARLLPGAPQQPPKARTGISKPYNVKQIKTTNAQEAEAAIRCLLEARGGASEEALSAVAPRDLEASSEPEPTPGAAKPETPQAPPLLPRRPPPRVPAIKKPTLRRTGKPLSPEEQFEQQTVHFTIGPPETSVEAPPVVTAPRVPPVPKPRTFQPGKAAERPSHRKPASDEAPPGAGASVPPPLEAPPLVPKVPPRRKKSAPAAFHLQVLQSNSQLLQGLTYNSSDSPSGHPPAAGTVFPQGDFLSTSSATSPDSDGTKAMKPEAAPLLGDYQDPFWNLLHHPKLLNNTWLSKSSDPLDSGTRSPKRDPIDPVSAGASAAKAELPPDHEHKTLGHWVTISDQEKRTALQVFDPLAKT

[1] = compound: C/C(=N\NC(=O)C1=CC(=CC=C1)S(=O)(=O)N2CCOCC2)/C3=C(C=CC(=C3)Cl)O
How it was run: as §1

[2] = compound: C1=CC(=CC=C1C2=NC3=C(N2)C=C(C=C3)C(=O)N)OC4=CC=C(C=C4)Cl
How it was run: as §1

[3] = compound: C1=CC2=C(C=CC(=C2)/C=C\3/C(=O)NC(=NCC4=CC=CS4)S3)N=C1
How it was run: as §1

[4] = compound: C1=CC2=NC=CN=C2C=C1/C=C/3\C(=O)NC(=O)S3
How it was run: as §1

[5] = compound: C1=CC=C(C=C1)C2=NC(=C(N2)C3=CC=NC=C3)C4=CC(=C(C=C4)Cl)O
How it was run: as §1

[6] = compound: C1=CC=C2C(=C1)C3=NNC4=CC=CC(=C43)C2=O
How it was run: as §1

[7] = compound: C1CCN(C1)C(=O)NC2=CC=CC(=C2)NC3=NC=C(C(=N3)NCCC4=CN=CN4)Br
How it was run: as §1

[8] = compound: C1CN(CCC1(CC2=CC=C(C=C2)Cl)N)C3=NC=NC4=C3C=CN4
How it was run: as §1

IRAK-1-4 Inhibitor I = compound: C1COCCN1CCN2C3=CC=CC=C3N=C2NC(=O)C4=CC(=CC=C4)[N+](=O)[O-] [IRAK-1-4 Inhibitor I]
How it was run: as §1

ibrutinib = compound: C=CC(=O)N1CCC[C@@H](n2nc(-c3ccc(Oc4ccccc4)cc3)c3c(N)ncnc32)C1 [ibrutinib]
How it was run: as §1

[9] = compound: CC(=O)c1cnc2ccc(-c3cc(Cl)c(O)c(Cl)c3)nc2c1N[C@H]1CC[C@H](CN(C)C)CC1
How it was run: as §1

ralimetinib = compound: CC(C)(C)Cn1c(N)nc2ccc(-c3[nH]c(C(C)(C)C)nc3-c3ccc(F)cc3)nc21 [ralimetinib]
How it was run: as §1

[10] = compound: CC(C)(O)CC(=O)NCCn1ccc2ncnc(Nc3ccc(Oc4cccc(C(F)(F)F)c4)c(Cl)c3)c21
How it was run: as §1

[11] = compound: CC(C)C1=C2N=C(C=C(N2N=C1)NCC3=CC=CC=C3)NCCCCCCN
How it was run: as §1

[12] = compound: CC1=C(C(CC(=O)N1)C2=CC=C(C=C2)C(F)(F)F)C(=O)NC3=C(C=C4C(=C3)C=NN4)F
How it was run: as §1

[13] = compound: CC1=C(C2=C(C=C1)C(=O)C3=CC=CC=C3N2CCCN)C
How it was run: as §1

[14] = compound: CC1=C(C=C(C=C1)NC(=O)C2=CC(=CC=C2)C(C)(C)C#N)NC3=CC4=C(C=C3)N=CN(C4=O)C
How it was run: as §1

[15] = compound: CC1=C(C=C(C=C1)NC(=O)C2=CC(=CC=C2)N(C)C)NC(=O)C3=CC=C(C=C3)O
How it was run: as §1

[16] = compound: CC1=CC=C(C=C1)SC2=C3C=C(SC3=CN=C2)C(=O)N
How it was run: as §1

Measured: log2 fold change

SYNGR2 (UniProt O43760)
inactive: erlotinib -0.003 | [1] -0.049 | [2] 0 | [3] 0.012 | [4] -0.047 | [5] -0.052 | [6] -0.045 | [7] -0.087 | [8] 0.006 | IRAK-1-4 Inhibitor I 0.035 | ibrutinib -0.019 | [9] -0.06 | ralimetinib 0.02 | [10] -0.02 | [11] 0.008 | [12] -0.016 | [13] -0.002 | [14] 0.018 | [15] -0.009 | [16] 0.034

STUB1 (UniProt Q9UNE7)
inactive: erlotinib 0.05 | [1] 0.024 | [2] -0.034 | [3] -0.022 | [4] 0.009 | [5] 0.003 | [6] -0.033 | [7] 0.013 | [8] 0.006 | IRAK-1-4 Inhibitor I -0.018 | ibrutinib 0.015 | [9] 0.011 | ralimetinib 0.005 | [10] 0 | [11] -0.018 | [12] 0.023 | [13] 0.032 | [14] -0.012 | [15] -0.001 | [16] -0.019

STX5 (UniProt Q13190)
inactive: erlotinib 0.033 | [1] -0.056 | [2] -0.047 | [3] 0.012 | [4] -0.064 | [5] 0.025 | [6] -0.034 | [7] 0.006 | [8] 0.006 | IRAK-1-4 Inhibitor I -0.008 | ibrutinib -0.071 | [9] 0.015 | ralimetinib 0.011 | [10] -0.032 | [11] 0.042 | [12] 0.032 | [13] 0.027 | [14] 0 | [15] -0.032 | [16] -0.025

STK36 (UniProt Q9NRP7)
inactive: erlotinib 0.114 | [1] -0.06 | [2] 0.251 | [3] -0.199 | [4] -0.169 | [5] -0.075 | [6] -0.241 | [7] -0.049 | [8] 0.185 | IRAK-1-4 Inhibitor I 0.205 | ibrutinib 0.019 | [9] -0.182 | ralimetinib -0.087 | [10] -0.416 | [11] 0.071 | [12] -0.058 | [13] -0.176 | [14] 0.408 | [15] -0.004 | [16] -0.097

2 records picked at random from the list so far, as already listed:
STUB1 (UniProt Q9UNE7)
inactive: erlotinib 0.05 | [1] 0.024 | [2] -0.034 | [3] -0.022 | [4] 0.009 | [5] 0.003 | [6] -0.033 | [7] 0.013 | [8] 0.006 | IRAK-1-4 Inhibitor I -0.018 | ibrutinib 0.015 | [9] 0.011 | ralimetinib 0.005 | [10] 0 | [11] -0.018 | [12] 0.023 | [13] 0.032 | [14] -0.012 | [15] -0.001 | [16] -0.019

STX5 (UniProt Q13190)
inactive: erlotinib 0.033 | [1] -0.056 | [2] -0.047 | [3] 0.012 | [4] -0.064 | [5] 0.025 | [6] -0.034 | [7] 0.006 | [8] 0.006 | IRAK-1-4 Inhibitor I -0.008 | ibrutinib -0.071 | [9] 0.015 | ralimetinib 0.011 | [10] -0.032 | [11] 0.042 | [12] 0.032 | [13] 0.027 | [14] 0 | [15] -0.032 | [16] -0.025

Continuation:

STRBP (UniProt Q96SI9)
inactive: erlotinib 0.004 | [1] 0.022 | [2] 0.036 | [3] 0.033 | [4] -0.025 | [5] -0.026 | [6] -0.005 | [7] -0.022 | [8] -0.002 | IRAK-1-4 Inhibitor I 0.011 | ibrutinib -0.001 | [9] -0.019 | ralimetinib -0.035 | [10] 0.037 | [11] -0.014 | [12] 0.053 | [13] -0.103 | [14] 0.002 | [15] -0.018 | [16] 0.031

SUGT1 (UniProt Q9Y2Z0)
inactive: erlotinib -0.01 | [1] -0.001 | [2] 0.018 | [3] -0.023 | [4] -0.024 | [5] 0.055 | [6] 0.022 | [7] -0.017 | [8] -0.02 | IRAK-1-4 Inhibitor I -0.027 | ibrutinib 0.006 | [9] 0.018 | ralimetinib -0.003 | [10] 0.035 | [11] 0.01 | [12] 0.004 | [13] 0.006 | [14] 0.003 | [15] 0.029 | [16] -0.007

SYAP1 (UniProt Q96A49)
inactive: erlotinib -0.046 | [1] -0.003 | [2] 0.039 | [3] 0.033 | [4] -0.044 | [5] -0.072 | [6] 0.055 | [7] -0.04 | [8] -0.005 | IRAK-1-4 Inhibitor I 0.023 | ibrutinib 0.007 | [9] 0.009 | ralimetinib -0.065 | [10] -0.005 | [11] 0.066 | [12] 0.015 | [13] -0.049 | [14] 0.016 | [15] -0.054 | [16] 0.04

SURF1 (UniProt Q15526)
inactive: erlotinib 0.028 | [1] 0.017 | [2] -0.171 | [3] -0.049 | [4] 0.146 | [5] -0.033 | [6] 0.031 | [7] -0.04 | [8] 0.034 | IRAK-1-4 Inhibitor I 0.013 | ibrutinib 0.01 | [9] 0.001 | ralimetinib 0.003 | [10] 0.007 | [11] -0.017 | [12] 0.024 | [13] 0.02 | [14] 0.013 | [15] 0.024 | [16] 0.027

STRAP isoform 2 (UniProt Q9Y3F4)
inactive: erlotinib 0.013 | [1] 0.043 | [2] 0.005 | [3] -0.008 | [4] -0.019 | [5] 0.046 | [6] 0.019 | [7] 0.026 | [8] 0.019 | IRAK-1-4 Inhibitor I 0.016 | ibrutinib 0.028 | [9] -0.008 | ralimetinib 0 | [10] 0.015 | [11] -0.002 | [12] -0.002 | [13] 0.012 | [14] 0.01 | [15] -0.014 | [16] -0.001

STX6 (UniProt O43752)
inactive: erlotinib 0.043 | [1] -0.054 | [2] 0.005 | [3] -0.032 | [4] 0.005 | [5] -0.017 | [6] -0.011 | [7] 0.028 | [8] 0.027 | IRAK-1-4 Inhibitor I 0.019 | ibrutinib 0.015 | [9] -0.031 | ralimetinib -0.01 | [10] -0.049 | [11] -0.038 | [12] -0.04 | [13] 0.011 | [14] 0.03 | [15] -0.012 | [16] 0.017

STX8 (UniProt Q9UNK0)
inactive: erlotinib 0.015 | [1] -0.013 | [2] -0.029 | [3] -0.005 | [4] -0.017 | [5] -0.002 | [6] -0.053 | [7] 0.007 | [8] 0.024 | IRAK-1-4 Inhibitor I 0.003 | ibrutinib 0.063 | [9] -0.018 | ralimetinib 0.029 | [10] 0.007 | [11] -0.016 | [12] -0.048 | [13] 0.023 | [14] 0 | [15] -0.032 | [16] -0.018

SYNJ1 (UniProt O43426)
inactive: erlotinib -0.013 | [1] -0.028 | [2] 0.03 | [3] -0.021 | [4] -0.008 | [5] 0.016 | [6] -0.03 | [7] -0.011 | [8] 0 | IRAK-1-4 Inhibitor I -0.019 | ibrutinib 0.04 | [9] 0.025 | ralimetinib -0.01 | [10] -0.001 | [11] -0.001 | [12] 0 | [13] -0.003 | [14] -0.001 | [15] 0 | [16] -0.015

TADA3 (UniProt O75528)
inactive: erlotinib 0.02 | [1] -0.046 | [2] 0.032 | [3] -0.073 | [4] -0.04 | [5] 0.048 | [6] 0.009 | [7] -0.058 | [8] 0.053 | IRAK-1-4 Inhibitor I 0.018 | ibrutinib 0.032 | [9] 0 | ralimetinib -0.013 | [10] -0.022 | [11] 0.018 | [12] -0.003 | [13] -0.005 | [14] 0.054 | [15] 0.024 | [16] -0.011

TAB2 (UniProt Q9NYJ8)
inactive: erlotinib -0.028 | [1] 0.036 | [2] 0.021 | [3] -0.052 | [4] 0.058 | [5] 0.032 | [6] 0.052 | [7] -0.036 | [8] -0.019 | IRAK-1-4 Inhibitor I 0.037 | ibrutinib -0.033 | [9] 0.078 | ralimetinib -0.022 | [10] 0.039 | [11] -0.091 | [12] 0.051 | [13] 0.025 | [14] 0.106 | [15] -0.007 | [16] -0.022

SYNJ2 (UniProt O15056)
inactive: erlotinib 0.001 | [1] -0.014 | [2] -0.012 | [3] -0.059 | [4] -0.043 | [5] -0.019 | [6] 0.014 | [7] -0.097 | [8] 0.039 | IRAK-1-4 Inhibitor I 0.032 | ibrutinib -0.01 | [9] 0.008 | ralimetinib 0.025 | [10] -0.026 | [11] -0.022 | [12] -0.053 | [13] 0.03 | [14] -0.001 | [15] 0.017 | [16] -0.023

SUPT20H isoform 3 (UniProt Q8NEM7)
inactive: erlotinib 0.069 | [1] -0.099 | [2] 0.269 | [3] -0.018 | [4] -0.114 | [5] 0.287 | [6] 0.223 | [7] -0.116 | [8] -0.064 | IRAK-1-4 Inhibitor I -0.007 | ibrutinib -0.316 | [9] -0.062 | ralimetinib -0.045 | [10] -0.209 | [11] 0.017 | [12] -0.025 | [13] -0.091 | [14] 0.13 | [15] 0.018 | [16] -0.118
